Values quoted from earlier work in patent US20230024050A1, “Dermatological Compositions and Methods of Treatment against Cutaneous T-Cell Lymphoma” (Soligenix, Inc., priority 2021, published 2023).
For at least one compound, name, drawing or mass did not settle the structure.

Test system: protein kinase C

Cc1cc(O)c2c(=O)c3c(O)cc(O)c4c5c(O)cc(O)c6c(=O)c7c(O)cc(C)c8c1c2c(c34)c(c78)c65 [hypericin]
Protein kinase C inhibition: potent protein kinase C inhibitor
